Results reported in patent US20030215451A1.
These are yes or no findings as the source states them, for the method shown. Some entries that bind do so weakly or less than the wild type. Sequences can lack the tags named with a protein.

Protein sequences, listed by entry. Tags and fused reporters are not part of them. Lines headed by an entry give the natural chain unless they say otherwise; changes in a name come on top.
UniProt P06756: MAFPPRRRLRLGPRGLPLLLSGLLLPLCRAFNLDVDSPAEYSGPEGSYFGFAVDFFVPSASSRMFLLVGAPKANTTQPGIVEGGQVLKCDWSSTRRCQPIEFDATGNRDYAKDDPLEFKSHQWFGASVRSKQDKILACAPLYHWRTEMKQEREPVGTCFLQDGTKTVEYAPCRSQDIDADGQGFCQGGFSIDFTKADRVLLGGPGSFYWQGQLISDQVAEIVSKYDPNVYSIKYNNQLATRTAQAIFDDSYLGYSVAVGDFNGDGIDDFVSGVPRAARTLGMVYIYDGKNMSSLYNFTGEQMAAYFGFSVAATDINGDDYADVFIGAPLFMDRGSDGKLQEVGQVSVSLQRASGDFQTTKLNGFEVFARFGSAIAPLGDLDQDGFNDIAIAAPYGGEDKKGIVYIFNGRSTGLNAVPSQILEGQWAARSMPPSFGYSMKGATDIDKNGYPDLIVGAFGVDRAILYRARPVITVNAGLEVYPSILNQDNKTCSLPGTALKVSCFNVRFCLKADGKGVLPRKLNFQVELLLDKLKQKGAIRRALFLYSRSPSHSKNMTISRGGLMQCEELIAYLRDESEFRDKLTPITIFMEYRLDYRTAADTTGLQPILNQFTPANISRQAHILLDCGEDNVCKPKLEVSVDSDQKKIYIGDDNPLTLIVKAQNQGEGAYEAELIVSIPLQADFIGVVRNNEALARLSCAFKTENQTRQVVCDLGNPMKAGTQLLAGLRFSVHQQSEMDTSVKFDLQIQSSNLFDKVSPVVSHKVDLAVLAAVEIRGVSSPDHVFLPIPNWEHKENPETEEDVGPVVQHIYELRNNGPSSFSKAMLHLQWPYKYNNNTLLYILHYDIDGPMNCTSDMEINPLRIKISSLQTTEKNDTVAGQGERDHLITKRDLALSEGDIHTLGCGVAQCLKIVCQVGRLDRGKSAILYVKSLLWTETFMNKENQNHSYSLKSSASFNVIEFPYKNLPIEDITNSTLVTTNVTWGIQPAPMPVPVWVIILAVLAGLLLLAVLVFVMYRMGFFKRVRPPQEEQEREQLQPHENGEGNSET

Target: integrin αvβ3 (UniProt P06756)
Assay: adhesion of 293 cells stably transfected with integrin heterodimers to Angptl3-coated microtiter plates, OD405

binding: binds
B1: recombinant human Angptl3 tagged with an amino-terminal gD epitope (ligand, not shown: small tags and cut ends)
chain: SRIDQDNSSFDSLSPEPKSRFAMLDDVKILANGLLQLGHGLKDFVHKTKGQINDIFQKLNIFDQSFYDLSLQTSEIKEEEKELRRTTYKLQVKNEEVKNMSLELNSKLESLLEEKILLQQKVKYLEEQLTNLIQNQPETPEHPEVTSLKTFVEKQDNSIKDLLQTVEDQYKQLNQQHSQIKEIENQLRRTSIQEPTEISLSSKPRAPRTTPFLQLNEIRNVKHDGIPAECTTIYNRGEHTSGMYAIRPSNSQVFHVYCDVISGSPWTLIQHRIDGSQNFNETWENYKYGFGRLDGEFWLGLEKIYSIVKQSNYVLRIELEDWKDNKHYIEYSFYLGNHETNYTLHLVAITGNVPNAIPENKDLVFSTWDHKAKGHFNCPEGYSGGWWWHDECGENNLNGKYNKPRAKSKPERRRGLSWKSQNGRLYSIKSTKMLIHPTDSESFE
modifications: glycosylated (PNGase-F sensitive)
